Out of some 400,000 compounds screened, about 13,000 (3.2%) were called active. The inconclusive results got no clear call from the source; some entries with a clear call stand among them for comparison. Calls come from the whole dose curve; as a rule, active = well fitted cell-killing curve with a large enough effect; inconclusive = small, poorly fitted or top-dose-only effect, or effect the other way; inactive = flat fitted curve, though single readings scatter. Potencies beside an inconclusive call are fits to weak or partial responses and may not hold up.
experiment: qHTS assay for MDR1-selective chemotherapeutics: Primary screen using the drug-selected MDR subline cells KB-V1; settings: KB-V1 MDR cells viability, CellTiter-Glo, 72 h; series mostly up to 46.1 µM; note: nearly all actives have a fitted effect of over 60% in size
Procedure, shortened: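 KB-V1 MDR subline cells in DMEM (phenol-red free, 10% FBS) exposed to compounds in qHTS concentration series for 72 h at 37 degrees C. Viability read by CellTiter-Glo luminescence; concentration-effect curves fitted after normalization and correction.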
Potency is the fitted concentration of half-maximal effect.

Row | Structure (SMILES) | Potency
1 | COc1cccc(C2CC(c3ccccc3Cl)Nc3ncnn32)c1 (stereo not given) | inconclusive: 29.1 µM [cytotoxic, single point]
2 | CC1CC(=O)N(CC(=O)Nc2ccc(F)cc2)c2ccccc2S1(=O)=O (stereo not given) | inconclusive: 29.1 µM [rising, single point]
3 | Cc1cccc2cc(COC(=O)c3cccc([N+](=O)[O-])c3)c(=O)[nH]c12 | inconclusive: 23.1 µM [rising, single point]
4 | Cc1cccn2c(=O)c(C=O)c(N3CCN(c4ccc(F)cc4)CC3)nc12 | inactive
5 | O=C(CSc1ccc(Cl)cc1)Nc1ccc(N2CCN(C(=O)c3ccc(Cl)cc3)CC2)cc1 | inconclusive: 2.59 µM [cytotoxic, partial curve, poor fit]
6 | COc1ccc(S(=O)(=O)n2ccc(C(C)Oc3ccc(-c4ccccc4)c(F)c3)n2)cc1 (stereo not given) | inconclusive: 29.1 µM [cytotoxic, single point]
7 | Cc1ccc(NC(=O)/C=C/c2cccc(C(F)(F)F)c2)cc1 | inconclusive: 16.4 µM [rising, single point]
8 | CCc1nc2ccccc2c(C(=O)OCc2nnc(-c3ccccc3)o2)c1C | inactive
9 | O=C(NC1CCN(Cc2ccccc2)CC1)c1cccc(NS(=O)(=O)c2ccc(Br)cc2)c1 | inactive
10 | Cc1ccc(S(=O)(=O)Nc2ccccc2-c2ccccc2)cc1 | inconclusive: 2.59 µM [cytotoxic, partial curve, poor fit]
11 | Cn1ncc2c(=O)[nH]nnc21 | inactive
12 | CCCCC[C@@H](C)N1C[C@@H](COCc2ccccc2)Oc2cc(N3CC[C@H](N(C)C)C3)ccc2S1(=O)=O | inconclusive: 23.1 µM [cytotoxic, partial curve, poor fit]
13 | COc1ccc(NC(=O)C(NC(=O)c2ccccc2)C(C)C)cc1 (stereo not given) | active: 20.6 µM
14 | COc1ccc(CN(C2CCCC2)S(=O)(=O)c2ccc(-n3cnnn3)cc2)cc1 | inconclusive: 29.1 µM [cytotoxic, single point]
15 | C/C(=C(/NC(=O)c1ccccc1)C(=O)O)c1ccco1 | inconclusive: 29.1 µM [rising, single point]
16 | CC(=O)Nc1cccc(C(=O)/C=C/c2ccc(N(C)C)cc2)c1 | inconclusive: 16.4 µM [cytotoxic, single point]
17 | O=C(CN1CCN(Cc2ccccc2Cl)CC1)N/N=C/C=C/c1ccccc1[N+](=O)[O-] | inconclusive: 8.2 µM [cytotoxic, partial curve]
18 | O=S1(=O)N=C(Nc2nc3c(s2)CCCC3)c2ccccc21 | inactive
19 | CC(=O)Nc1ccc2nc(SCC(=O)N3CCOCC3)sc2c1 | inactive
20 | O=C(COC(=O)c1ccc2[nH]c3c(c2c1)CCCC3)Nc1ccccc1 | inconclusive: 20.6 µM [cytotoxic, single point]
21 | COCCNC(=S)N/N=C(\C)c1ccc(-n2ccnc2)cc1 | inconclusive: 35.5 µM [cytotoxic, single point]
22 | O=[N+]([O-])c1ccc(C=NN2CCCCCC2)cc1 | inactive
23 | CC(C)(CNC(=O)c1cc(Cl)c(O)c(Cl)c1)N1CCCCC1 | inactive

An excerpt of these results, in markdown:

| Row | Structure (SMILES) | Potency |
| --- | --- | --- |
| 6 | COc1ccc(S(=O)(=O)n2ccc(C(C)Oc3ccc(-c4ccccc4)c(F)c3)n2)cc1 (stereo not given) | inconclusive: 29.1 µM [cytotoxic, single point] |
| 7 | Cc1ccc(NC(=O)/C=C/c2cccc(C(F)(F)F)c2)cc1 | inconclusive: 16.4 µM [rising, single point] |
| 8 | CCc1nc2ccccc2c(C(=O)OCc2nnc(-c3ccccc3)o2)c1C | inactive |
| 9 | O=C(NC1CCN(Cc2ccccc2)CC1)c1cccc(NS(=O)(=O)c2ccc(Br)cc2)c1 | inactive |
| 10 | Cc1ccc(S(=O)(=O)Nc2ccccc2-c2ccccc2)cc1 | inconclusive: 2.59 µM [cytotoxic, partial curve, poor fit] |
| 11 | Cn1ncc2c(=O)[nH]nnc21 | inactive |
| 12 | CCCCC[C@@H](C)N1C[C@@H](COCc2ccccc2)Oc2cc(N3CC[C@H](N(C)C)C3)ccc2S1(=O)=O | inconclusive: 23.1 µM [cytotoxic, partial curve, poor fit] |
| 13 | COc1ccc(NC(=O)C(NC(=O)c2ccccc2)C(C)C)cc1 (stereo not given) | active: 20.6 µM |
| 14 | COc1ccc(CN(C2CCCC2)S(=O)(=O)c2ccc(-n3cnnn3)cc2)cc1 | inconclusive: 29.1 µM [cytotoxic, single point] |
| 15 | C/C(=C(/NC(=O)c1ccccc1)C(=O)O)c1ccco1 | inconclusive: 29.1 µM [rising, single point] |
| 16 | CC(=O)Nc1cccc(C(=O)/C=C/c2ccc(N(C)C)cc2)c1 | inconclusive: 16.4 µM [cytotoxic, single point] |
| 17 | O=C(CN1CCN(Cc2ccccc2Cl)CC1)N/N=C/C=C/c1ccccc1[N+](=O)[O-] | inconclusive: 8.2 µM [cytotoxic, partial curve] |
| 18 | O=S1(=O)N=C(Nc2nc3c(s2)CCCC3)c2ccccc21 | inactive |

Continuation.

Row | Structure (SMILES) | Potency
24 | COc1ccc(/C=N/Nc2nc(Nc3ccccc3)nc(N3CCCC3)n2)cc1[N+](=O)[O-] | inconclusive: 29.1 µM [cytotoxic, single point]
25 | CC1CN(c2ccc(Cl)cc2[N+](=O)[O-])CCN1S(C)(=O)=O (stereo not given) | inconclusive: 20.6 µM [cytotoxic, single point]
26 | COc1cc2c(cc1OC)C(C(C(=O)N(CCc1ccc(OC)c(OC)c1OC)CCc1ccc(OC)c(OC)c1OC)c1ccccc1)=NCC2 (stereo not given) | inconclusive: 18.4 µM [cytotoxic, single point]
27 | CC(=O)c1c(OCC(=O)O)ccc2c(C)cc(=O)oc12 | inactive
28 | Cc1ccc(Nc2nc(N)nc(CCl)n2)cc1 | inconclusive: 25.9 µM [cytotoxic, single point]
29 | C=CCn1c(=O)c2c(nc3n2CCCN3CCc2ccccc2)n(C)c1=O | inactive
30 | Cc1ccccc1-n1c(SCC(=O)NCc2cccs2)nnc1-c1ccncc1 | inconclusive: 25.9 µM [cytotoxic, single point]
31 | O=C(C1CCCN(Cc2ccccc2)C1)N1CCc2ccccc2C1 (stereo not given) | active: 23.1 µM
32 | COc1ccc(-c2sc3ccc(N4CCOCC4)cc3c2-c2ccc(O)cc2)cc1 | inconclusive: 8.2 µM [rising, partial curve]
33 | CN(Cc1cccs1)C(=O)COc1cccc2c1OC(C)(C)C2 | active: 18.4 µM
34 | CCn1c(SCC(=O)Nc2nc(-c3ccccc3)cs2)nnc1-c1ccccc1 | active: 18.4 µM
35 | O=C(NCCSc1ccccc1)c1cncc(Br)c1 | inactive
36 | Fc1ccccc1CCNc1c2c(nc3ncnn13)CCCC2 | inactive
37 | COCC(C)n1c(=O)sc2ccccc2c1=O (stereo not given) | inconclusive: 29.1 µM [rising, single point]
38 | CSc1ncccc1C(=O)OCC(=O)NC(C)C | inconclusive: 20.6 µM [rising, single point]
39 | COc1ccc(C2/C(=C(/O)c3ccc(C)cc3)C(=O)C(=O)N2c2ccccn2)cc1 (stereo not given) | inconclusive: 23.1 µM [cytotoxic, single point]
40 | COC(=O)COc1coc(CN2CCN(c3cccc(Cl)c3)CC2)cc1=O | inconclusive: 0.411 µM [rising, full curve, poor fit]
41 | COc1ccc(Nc2nc(NC(C)(C)C)nc(N3CCCC3)n2)c(OC)c1 | active: 18.4 µM
42 | CN(C(=O)c1ccc(Cl)cc1)c1ccc(OCC(=O)Nc2cc(C(=O)O)ccc2Cl)cc1 | inconclusive: 29.1 µM [rising, single point]
43 | COc1ccc(Cl)cc1C(=O)Nc1ccccc1N1CCN(C)CC1 | active: 5.8 µM
44 | Cc1cc(C)c(C)c(S(=O)(=O)N2CCN(c3ccc(O)cc3)CC2)c1C | inconclusive: 18.4 µM [cytotoxic, partial curve, poor fit]
45 | COc1ccc(N(C(=O)c2cccnc2)S(=O)(=O)c2cccc([N+](=O)[O-])c2)cc1 | inconclusive: 32.6 µM [cytotoxic, single point]
